Consider 1 substance from publication PMC4625158.

Sequences of proteins named here, by UniProt entry; tags and fusion partners are left off. A change or cut given only in a name is not applied to a line headed by its entry.
UniProt P08168: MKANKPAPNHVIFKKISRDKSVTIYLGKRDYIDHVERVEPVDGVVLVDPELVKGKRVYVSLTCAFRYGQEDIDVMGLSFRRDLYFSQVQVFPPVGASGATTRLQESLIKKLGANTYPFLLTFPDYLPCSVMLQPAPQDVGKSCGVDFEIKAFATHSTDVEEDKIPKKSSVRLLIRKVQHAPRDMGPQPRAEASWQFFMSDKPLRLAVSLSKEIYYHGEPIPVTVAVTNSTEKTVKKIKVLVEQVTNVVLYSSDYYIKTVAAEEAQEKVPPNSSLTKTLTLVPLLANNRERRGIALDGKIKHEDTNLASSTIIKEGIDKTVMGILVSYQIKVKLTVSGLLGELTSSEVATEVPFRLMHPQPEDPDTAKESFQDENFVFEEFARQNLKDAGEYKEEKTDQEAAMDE

The target of this assay is mutant arrestin R175E (bovine visual arrestin-1, aa 1-404, R175E) (bovine) (UniProt P08168). The assay can be described thus: SAXS; small angle X-ray scattering in solution, 10 °C, 10 mM HEPES, 150 mM NaCl, pH 7.5; concentration series (arr-1: 1.9, 3.0 and 8.5 mg/mL; R175E: 0.4, 0.9 and 1.7 mg/mL; p44: 1.0, 2.0 and 4.6 mg/mL), data extrapolated to infinite dilution; both purified.

These are yes or no findings as the source states them, for the method shown.

For the substance “mutant arrestin R175E (bovine visual arrestin-1, aa 1-404, R175E) (from UniProt P08168 1-404)”, the binding entry is “no binding (tested: 0.4, 0.9 and 1.7 mg/mL)”.
